# At least one structure is not confirmed: it was looked up by name or label, or the drawing left a doubt.
# Legend:
# Format in all cases: cell-based
# [1] = system: senescent human dermal fibroblast (HDF) M11 cells; assay: Relative proliferation rate of senescent cells (SYBR Green I DNA quantification); conditions: 0.1 μM, about 3 weeks, vs DMSO negative control (0.1-5.0 μM tested)
# Method: In order to examine whether senescent cells proliferate in response to treatment with BRAF inhibitors, human dermal fibroblast (HDF) M11 cells taken from a child are cultured in Dulbecco's Modified Eagle's Medium (DMEM) containing a high concentration of glucose, glutamine, and pyruvate, and 10% (v/v) fetal bovine serum (FBS), and 1× penicillin/streptomycin at about 37° C. and 5% CO2 atmosphere, thereby obtaining senescent cells. As for the senescent cells, cells that are passaged 35 times and whose doubling time is about 10 days or longer are used.
# The prepared senescent cells are inoculated at a density of 1000 cells/well in a 96-well plate. The BRAF inhibitor is added to the inoculated cells at a final concentration of 5 μM. SB590885, vemurafenib (PLX4032, RG7204), TAK-632, CEP-32496, GDC-0879, PLX-4720, ZM 336372, Sorafenib tosylate, Sorafenib, GW5074, Dabrafenib (GSK2118436), AZ 628, RAF265 (CHIR-265), and NVP-BHG712 are used as BRAF inhibiting drugs. […] About 3 weeks after initial addition of the drug, 0.1% (w/v) SYBR Green I (Life Technologies, Cat. No. S-7563) is used to quantify DNA, and the number of cells is calculated from the DNA quantity measured. […]
# Then, SYBR Green I (Life Technologies, Cat. No. S-7563) is used to quantify DNA in the senescent cells thus cultured, and the number of cells is calculated from the DNA quantity measured. […]
# [2] = system: senescent human dermal fibroblast (HDF) M11 cells; assay: Number of senescent cells counted using a hemocytometer; conditions: 0.1 μM, about 13 days, vs DMSO
# [3] = system: senescent human dermal fibroblast (HDF) M11 cells; assay: Senescence-associated beta-galactosidase (SA β-gal) staining of senescent cells; conditions: SA β-gal-positive cells relative to DMSO negative control
structure (smiles),measurement,setting,value
CN(C)CCOc1ccc(-c2nc(-c3ccncc3)c(-c3ccc4c(c3)CC/C4=N\O)[nH]2)cc1 [SB590885],relative proliferation rate of the senescent cells,[1],high relative proliferation rate
same,number of senescent cells relative to negative control group,[2],about twice
same,SA β-gal activity of the senescent cells,[3],significantly reduce
